Article PMC12240075

Amino acid sequences for entries named in this document (tags omitted).
UniProt P11142: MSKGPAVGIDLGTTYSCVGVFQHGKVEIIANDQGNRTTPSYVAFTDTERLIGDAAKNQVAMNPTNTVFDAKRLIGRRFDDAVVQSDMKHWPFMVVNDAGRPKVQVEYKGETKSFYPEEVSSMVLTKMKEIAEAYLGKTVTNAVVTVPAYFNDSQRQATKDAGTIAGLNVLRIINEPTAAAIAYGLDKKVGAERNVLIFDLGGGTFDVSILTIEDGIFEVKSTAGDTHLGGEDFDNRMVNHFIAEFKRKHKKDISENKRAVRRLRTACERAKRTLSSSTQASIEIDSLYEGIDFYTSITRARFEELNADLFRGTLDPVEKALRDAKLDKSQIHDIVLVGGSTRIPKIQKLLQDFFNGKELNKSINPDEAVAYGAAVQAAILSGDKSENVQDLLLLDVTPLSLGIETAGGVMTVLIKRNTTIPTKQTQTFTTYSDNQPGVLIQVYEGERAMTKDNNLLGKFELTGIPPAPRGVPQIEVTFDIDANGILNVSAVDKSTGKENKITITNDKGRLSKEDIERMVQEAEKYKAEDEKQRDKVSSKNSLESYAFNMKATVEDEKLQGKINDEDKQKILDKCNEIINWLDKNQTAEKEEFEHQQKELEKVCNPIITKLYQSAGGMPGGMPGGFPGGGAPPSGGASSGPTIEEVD
UniProt P25490: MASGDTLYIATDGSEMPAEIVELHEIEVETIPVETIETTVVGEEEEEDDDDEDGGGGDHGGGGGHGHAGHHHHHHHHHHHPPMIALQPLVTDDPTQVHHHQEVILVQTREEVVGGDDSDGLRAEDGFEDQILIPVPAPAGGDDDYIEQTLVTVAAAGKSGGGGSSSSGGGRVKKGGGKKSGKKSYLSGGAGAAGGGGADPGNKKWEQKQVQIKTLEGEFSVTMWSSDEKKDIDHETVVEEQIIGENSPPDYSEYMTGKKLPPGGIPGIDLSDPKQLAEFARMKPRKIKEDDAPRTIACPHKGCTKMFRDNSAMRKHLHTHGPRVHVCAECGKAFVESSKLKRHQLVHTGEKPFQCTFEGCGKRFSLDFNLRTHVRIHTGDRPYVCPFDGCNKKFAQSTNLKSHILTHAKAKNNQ
UniProt Q9C0K0: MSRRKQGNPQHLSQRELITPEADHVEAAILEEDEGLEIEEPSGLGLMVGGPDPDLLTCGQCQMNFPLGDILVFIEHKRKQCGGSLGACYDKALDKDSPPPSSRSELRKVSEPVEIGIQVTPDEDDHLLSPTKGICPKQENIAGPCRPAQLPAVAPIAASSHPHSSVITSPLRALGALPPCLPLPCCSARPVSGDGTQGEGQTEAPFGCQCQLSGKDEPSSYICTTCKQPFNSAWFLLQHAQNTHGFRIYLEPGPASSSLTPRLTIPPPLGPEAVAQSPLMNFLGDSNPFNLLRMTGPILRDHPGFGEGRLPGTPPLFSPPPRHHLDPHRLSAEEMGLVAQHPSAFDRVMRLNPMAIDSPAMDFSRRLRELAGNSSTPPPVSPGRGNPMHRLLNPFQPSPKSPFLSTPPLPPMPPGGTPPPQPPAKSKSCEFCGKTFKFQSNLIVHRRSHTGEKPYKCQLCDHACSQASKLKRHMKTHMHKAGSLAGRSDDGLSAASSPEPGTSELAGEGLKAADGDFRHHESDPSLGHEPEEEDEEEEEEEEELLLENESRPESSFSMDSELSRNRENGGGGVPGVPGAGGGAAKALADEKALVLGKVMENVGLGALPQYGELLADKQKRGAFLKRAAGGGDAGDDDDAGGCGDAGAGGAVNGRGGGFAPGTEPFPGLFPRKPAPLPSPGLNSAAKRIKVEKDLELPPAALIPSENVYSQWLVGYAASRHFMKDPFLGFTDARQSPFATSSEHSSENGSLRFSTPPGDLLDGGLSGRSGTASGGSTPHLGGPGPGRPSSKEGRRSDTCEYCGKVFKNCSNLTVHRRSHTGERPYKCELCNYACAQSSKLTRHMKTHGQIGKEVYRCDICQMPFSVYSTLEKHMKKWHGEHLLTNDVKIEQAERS

B1: nucleoporin Nup107 (protein, UniProt P57740 1-925)
chain: MDRSGFGEISSPVIREAEVTRTARKQSAQKRVLLQASQDENFGNTTPRNQVIPRTPSSFRQPFTPTSRSLLRQPDISCILGTGGKSPRLTQSSGFFGNLSMVTNLDDSNWAAAFSSQRSGLFTNTEPHSITEDVTISAVMLREDDPGEAASMSMFSDFLQSFLKHSSSTVFDLVEEYENICGSQVNILSKIVSRATPGLQKFSKTASMLWLLQQEMVTWRLLASLYRDRIQSALEEESVFAVTAVNASEKTVVEALFQRDSLVRQSQLVVDWLESIAKDEIGEFSDNIEFYAKSVYWENTLHTLKQRQLTSYVGSVRPLVTELDPDAPIRQKMPLDDLDREDEVRLLKYLFTLIRAGMTEEAQRLCKRCGQAWRAATLEGWKLYHDPNVNGGTELEPVEGNPYRRIWKISCWRMAEDELFNRYERAIYAALSGNLKQLLPVCDTWEDTVWAYFRVMVDSLVEQEIQTSVATLDETEELPREYLGANWTLEKVFEELQATDKKRVLEENQEHYHIVQKFLILGDIDGLMDEFSKWLSKSRNNLPGHLLRFMTHLILFFRTLGLQTKEEVSIEVLKTYIQLLIREKHTNLIAFYTCHLPQDLAVAQYALFLESVTEFEQRHHCLELAKEADLDVATITKTVVENIRKKDNGEFSHHDLAPALDTGTTEEDRLKIDVIDWLVFDPAQRAEALKQGNAIMRKFLASKKHEAAKEVFVKIPQDSIAEIYNQCEEQGMESPLPAEDDNAIREHLCIRAYLEAHETFNEWFKHMNSVPQKPALIPQPTFTEKVAHEHKEKKYEMDFGIWKGHLDALTADVKEKMYNVLLFVDGGWMVDVREDAKEDHERTHQMVLLRKLCLPMLCFLLHTILHSTGQYQECLQLADMVSSERHKLYLVFSKEELRKLLQKLRESSLMLLDQGLDPLGYEIQL

What follows are molecules tested against HA-HSC70 (UniProt P11142) (assay: affinity purification with mass spectrometry; label-free quantitative MS of the HA-HSC70-WT and HA-HSC70-5A interactomes).

binding, binds:
transcription repressor Yin Yang 1 (from UniProt P25490 1-414), transcriptional regulatory protein Bcl11b (from UniProt Q9C0K0 1-894), B1

No constants are given. Whether binding was seen depends on the method and setting. Binding seen in cells or lysates may run through a third protein. Here binding means that the protein was enriched with, or labelled near, the bait; the list need not be complete.
